According to article PMC5727935, “The distinctive cell division interactome of Neisseria gonorrhoeae” (BMC Microbiology, 2017):

Columns and labels:
Test in all cases: two-hybrid; bacterial two-hybrid (Di Lallo): fusions to P22 and 434 repressor ends in E. coli R721, 34 °C; residual β-galactosidase activity against R721 without plasmids (2504 ± 34 Miller units); less than 50% counts as a positive interaction
[1] = biological target: T1, N. gonorrhoeae FtsQ, bacterial two-hybrid fusion (Neisseria gonorrhoeae CH811) (UniProt Q5F6M1)
T1 sequence: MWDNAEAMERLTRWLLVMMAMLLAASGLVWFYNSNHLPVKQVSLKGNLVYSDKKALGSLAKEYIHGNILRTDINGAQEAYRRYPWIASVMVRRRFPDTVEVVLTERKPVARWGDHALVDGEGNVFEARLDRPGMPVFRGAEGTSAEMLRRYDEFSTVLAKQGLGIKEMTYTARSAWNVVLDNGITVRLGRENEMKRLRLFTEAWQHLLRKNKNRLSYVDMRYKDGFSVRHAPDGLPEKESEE

[2] = biological target: T2, N. gonorrhoeae FtsW, bacterial two-hybrid fusion (Neisseria gonorrhoeae CH811) (UniProt B4RQC6)
T2 sequence: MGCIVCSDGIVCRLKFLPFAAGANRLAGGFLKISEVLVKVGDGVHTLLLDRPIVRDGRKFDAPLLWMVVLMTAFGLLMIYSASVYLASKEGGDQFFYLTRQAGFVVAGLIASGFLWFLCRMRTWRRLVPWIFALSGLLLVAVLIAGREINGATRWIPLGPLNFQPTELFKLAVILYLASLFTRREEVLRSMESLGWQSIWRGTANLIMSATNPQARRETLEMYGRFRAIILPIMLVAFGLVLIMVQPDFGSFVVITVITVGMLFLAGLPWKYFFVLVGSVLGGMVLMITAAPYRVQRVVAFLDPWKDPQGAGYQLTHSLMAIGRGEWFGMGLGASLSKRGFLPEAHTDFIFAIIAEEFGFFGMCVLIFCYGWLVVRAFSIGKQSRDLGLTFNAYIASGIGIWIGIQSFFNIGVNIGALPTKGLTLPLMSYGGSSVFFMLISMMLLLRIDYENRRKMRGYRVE

[3] = biological target: T3, N. gonorrhoeae FtsZ, bacterial two-hybrid fusion (Neisseria gonorrhoeae) (UniProt P72079)
T3 sequence: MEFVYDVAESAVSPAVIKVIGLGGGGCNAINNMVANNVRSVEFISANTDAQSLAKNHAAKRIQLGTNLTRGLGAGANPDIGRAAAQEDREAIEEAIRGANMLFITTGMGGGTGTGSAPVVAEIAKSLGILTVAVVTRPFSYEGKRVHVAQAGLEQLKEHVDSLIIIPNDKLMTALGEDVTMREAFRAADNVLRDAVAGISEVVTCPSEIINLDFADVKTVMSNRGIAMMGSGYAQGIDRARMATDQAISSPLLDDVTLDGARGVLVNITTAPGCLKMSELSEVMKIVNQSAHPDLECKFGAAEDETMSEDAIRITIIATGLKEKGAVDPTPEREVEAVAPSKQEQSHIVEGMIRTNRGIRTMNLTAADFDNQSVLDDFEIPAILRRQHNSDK

[4] = biological target: T4, N. gonorrhoeae FtsA, bacterial two-hybrid fusion (Neisseria gonorrhoeae CH811) (UniProt Q5F6M2)
T4 sequence: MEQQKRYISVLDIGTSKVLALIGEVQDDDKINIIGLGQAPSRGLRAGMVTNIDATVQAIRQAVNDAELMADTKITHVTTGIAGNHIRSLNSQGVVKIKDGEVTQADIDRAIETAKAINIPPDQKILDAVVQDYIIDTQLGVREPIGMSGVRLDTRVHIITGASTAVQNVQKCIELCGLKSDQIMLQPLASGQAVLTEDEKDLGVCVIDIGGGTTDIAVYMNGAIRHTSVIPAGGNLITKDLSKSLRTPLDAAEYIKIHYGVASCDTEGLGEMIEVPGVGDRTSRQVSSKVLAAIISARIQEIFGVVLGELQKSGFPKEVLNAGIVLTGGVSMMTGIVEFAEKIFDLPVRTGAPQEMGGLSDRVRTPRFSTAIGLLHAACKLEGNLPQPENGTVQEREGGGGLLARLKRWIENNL

[5] = biological target: N. gonorrhoeae FtsN, bacterial two-hybrid fusion (Neisseria gonorrhoeae CH811)
[6] = biological target: N. gonorrhoeae FtsK, bacterial two-hybrid fusion (Neisseria gonorrhoeae CH811)

Molecule: N. gonorrhoeae FtsI, bacterial two-hybrid fusion (Neisseria gonorrhoeae CH811)
binding [4]: no binding
binding [1]: no binding
binding [3]: no binding

Molecule: N. gonorrhoeae ZipA, bacterial two-hybrid fusion (Neisseria gonorrhoeae CH811)
binding [4]: no binding
binding [1]: no binding
binding [2]: no binding

B2: N. gonorrhoeae FtsQ, bacterial two-hybrid fusion (protein, UniProt Q5F6M1 1-242)
chain: T1 sequence
binding [6]: no binding
binding [5]: no binding

B3: N. gonorrhoeae FtsW, bacterial two-hybrid fusion (protein, UniProt B4RQC6 1-462)
chain: T2 sequence
binding [5]: no binding

Now from value to molecule:

binding [1]: no binding
binding [2]: no binding
binding [3]: no binding
Molecule: FtsANg truncation T6 (amino acids 351-414), bacterial two-hybrid fusion (Neisseria gonorrhoeae) (domain or fragment)

binding [2]: no binding
Molecule: N. gonorrhoeae FtsK, bacterial two-hybrid fusion (Neisseria gonorrhoeae CH811)

binding [5]: no binding
B1: N. gonorrhoeae FtsZ, bacterial two-hybrid fusion (natural protein, Neisseria gonorrhoeae, UniProt P72079 1-392, looked up)
chain: T3 sequence
notes: FtsZ of Neisseria gonorrhoeae; Cloned in both vectors (pcIp22 and pcI434); each fusion carries one of the two repressor ends; also called FtsZNg; pcIp22-Z; source: bacterial two-hybrid fusion, expressed in E. coli R721

These are yes or no findings as the source states them, for the method shown. Sequences can lack the tags named with a protein. Each block holds one molecule with its values, some of them ahead of it.
